According to PubChem BioAssay AID540276 (National Center for Advancing Translational Sciences (NCATS), 2011):
Values joined by “and” are separate entries in the source; they are usually repeats but may differ in a detail not shown here. Equal values may be shown once. Hit rate of the full screen: of about 300,000 compounds, about 5,400 (1.8%) were called active. Inconclusive results, whose numbers are uncertain, are shown with a selection of clear calls. Calls follow the shape of the full dose curve; tested in HEK293 cells. Potencies of inconclusive entries are doubtful fits and often do not repeat.

Experiment: qHTS for inhibitors of binding or entry into cells for Marburg Virus
Settings: Marburg virus pseudotyped entry inhibition, cell reporter; activity change, negative = inhibition: at 37.8 µM (top of the series) unless noted
% is scaled to controls: 0 for no effect and ±100 for the full control effect; potency is read from the fitted curve at half-maximal effect.

| SMILES | Potency | activity change, negative = inhibition |
| --- | --- | --- |
| O=S(=O)(NCCNc1ncc(C(F)(F)F)cc1Cl)C(F)(F)F | inconclusive: 35.5 µM [inhibitor, single point] | – |
| COC(=O)c1cccc(C(=O)N2CCCC(Nc3ccc4c(c3)OCCO4)C2)c1 (configuration not stated) | inconclusive: 0.631 µM [activator, full curve, poor fit] | – |
| OC1(c2cccc(C(F)(F)F)c2)CCN(Cc2nnnn2CCc2ccccc2)CC1 | inconclusive: 3.98 µM [inhibitor, partial curve, poor fit] | – |
| CC(C)CC(=O)c1c[nH]c(C(=O)NCc2ccccc2)c1 | inconclusive: 3.55 µM [inhibitor, single point] | – |
| Cc1nc2ccccc2c(C)c1CC(=O)OC(C)C(=O)NC1(C#N)CCCCC1 (configuration not stated) | – | inactive: -19.2% [at 46.1 µM] |
| CC(Sc1cnc2ccccc2n1)C(=O)O (configuration not stated) | – | inactive: 11.1% |
| CCC(=O)Nc1cc(C)c(NC(=O)c2ccco2)cn1 | inconclusive: 11.2 µM [activator, single point] | – |
| Cc1cc(N2CCN(C)CC2)nc2ccc(NC(=O)CCC(=O)NCCC3=CCCCC3)cc12 | inconclusive: 20.6 µM [inhibitor, single point] | – |
| Cc1ccc(Cl)cc1-n1c(=O)c2sc3ccccc3c2n(Cc2ccccc2)c1=O | – | inactive: 9.31% [at 46.1 µM] |
| COc1cc(-c2nnc(-c3cc(OC)c(OC)c(OC)c3)o2)cc(OC)c1OC | – | inactive: 0% |
| COc1ccc(CC(=O)NC2CCS(=O)(=O)C2)cc1 (configuration not stated) | – | inactive: 12.9% [at 46.1 µM] |
| O=C(N/N=C/c1cccnc1)c1cccs1 | – | inactive: 20.3% [at 46.1 µM] |
| COC(=O)c1cc(S(=O)(=O)N2CCC(C)CC2)ccc1F | – | inactive: -0.656% |
| CN(C(=O)COC(=O)c1ccc(Br)c([N+](=O)[O-])c1)c1c(N)n(Cc2ccccc2)c(=O)[nH]c1=O | inconclusive: 1.12 µM [inhibitor, single point] | – |
| Cc1ccccc1-n1nc(C(=O)c2cccs2)cc(-c2nc3ccccc3[nH]2)c1=N | inconclusive: 29.1 µM [inhibitor, single point] | – |
| O=C(N/N=C/c1ccc2c(c1)OCO2)c1cc(-c2ccccc2Cl)nc2ccccc12 | – | inactive: -11% |
| COCCOC(=O)C1=C(C)NC2(O)c3ccccc3C(=O)C12O (configuration not stated) | inconclusive: 0.103 µM [activator, full curve, poor fit] | – |
| CCOc1ccc(C(=O)Nc2nc(C)c(C(=O)OC)s2)cc1 | inconclusive: 3.55 µM [activator, partial curve, poor fit] | – |
| O=c1cc(CS(=O)(=O)c2ccccc2)nc(-c2ccncc2)[nH]1 | – | inconclusive: 17.8% [activator] [at 46.1 µM] |
| O=C(Nc1cccc(S(=O)(=O)N2CCCC2)c1)c1cc(-c2ccccn2)nc2ccccc12 | active: 7.94 µM | – |
| CCC1Oc2ccc(C)cc2N(CC(=O)N(Cc2cccnc2)Cc2cccc(F)c2)C1=O (configuration not stated) | inconclusive: 6.51 µM [inhibitor, full curve, poor fit] | – |
| CC(C)CN(CCCNC(=O)CC1Oc2ccccc2NC1=O)CC(C)C (configuration not stated) | inconclusive: 23.1 µM [inhibitor, single point] | – |
| CC(C)N1CCN(Cc2ccc(-c3ccccc3)cc2)CC1CCO (configuration not stated) | inconclusive: 10 µM [inhibitor, partial curve, poor fit] | – |

| SMILES | Potency | activity change, negative = inhibition |
| --- | --- | --- |
| CN(c1ccccc1)S(=O)(=O)c1cccc(NC(=O)c2cc3ccccc3oc2=O)c1 | inconclusive: 3.98 µM [activator, partial curve, poor fit] | – |
| Cc1ccc(Cn2c(=O)c3c(nc4n3CCN4Cc3ccco3)n(C)c2=O)cc1 | inactive | – |
| Cc1cc(C)c2c(C)c(C(=O)NCc3ccncc3)oc2c1 | – | inactive: -14.6% |
| Cc1ccc(CNC(=O)c2sccc2-n2cccc2)cc1 | inconclusive: 1.26 µM [inhibitor, full curve, poor fit] | – |
| N=c1c(C(=O)NCc2ccc(F)cc2)cc2c(=O)n3ccccc3nc2n1CC1CCCO1 (configuration not stated) | inconclusive: 0.1 µM [inhibitor, full curve, poor fit] | – |
| COC(=O)Cc1ccc(NC(=S)N2CCCC(CO)C2)cc1 (configuration not stated) | inconclusive: 6.31 µM [inhibitor, full curve, poor fit] | – |
| O=C(Cc1ccc(Cl)cc1Cl)Nc1cccc(S(=O)(=O)Nc2ccccc2F)c1 | inconclusive: 0.0316 µM [activator, partial curve, poor fit] | – |
| Cc1ccccc1S(=O)(=O)Cc1ccc(C(=O)NC2CCC(C)CC2)o1 (configuration not stated) | inactive | – |
| CCOc1ccc(NC(=O)Cn2c(=O)n(-c3ccccc3)c(=O)c3ccc(C(=O)NCc4ccc5c(c4)OCO5)cc32)cc1 | inconclusive: 2.82 µM [inhibitor, single point] | – |
| Cc1ccc2nc(-c3ccc(SCC(=O)Nc4nc(C)cs4)nc3)[nH]c2c1 | inconclusive: 0.651 µM [activator, partial curve, poor fit] | – |
| CC(C)NC(=O)CN1C(=O)C(C)(C)Oc2ccc(C(=O)NC3CCCCC3)cc21 | – | inactive: 15.5% [at 46.1 µM] |
| COc1ccccc1C1CC(c2ccco2)=NN1c1ccccc1 (configuration not stated) | inconclusive: 0.794 µM [inhibitor, partial curve, poor fit] | – |
| CCC(C(=O)Nc1ccncc1)c1ccccc1 (configuration not stated) | inconclusive: 0.112 µM [inhibitor, full curve, poor fit] | – |
| CCN1/C(=C\C=C2\C(=O)N(C)C(=S)N2C)Sc2ccccc21 | – | inactive: 31.1% [at 46.1 µM] |
| O=C(Nc1cccc2nsnc12)c1ccc(-c2ccc(Br)cc2)o1 | – | inactive: -28.3% |
| CSc1ccccc1NC(=O)CN(C)CC(=O)c1c(C)[nH]c2ccccc12 | – | inactive: 9.6% |
| COc1ccc(CNC(=O)CN(Cc2ccc(Cl)cc2)S(=O)(=O)c2ccccc2)cc1 | inconclusive: 29.1 µM [inhibitor, single point] | – |
| COC(=O)c1cn[nH]c1NC(=S)Nc1ccc(C)cc1Cl | inconclusive: 18.3 µM [inhibitor, partial curve, poor fit] | – |
| Brc1ccc2c(c1)C(OC1CN3CCC1CC3)c1ccccc1CS2 (configuration not stated) | active: 3.98 µM | – |
| O=C(COc1ccc(-c2nnco2)cc1)Nc1ccc(C(F)(F)F)cc1 | inconclusive: 4.47 µM [activator, single point] | – |
| O=C(CSc1cccs1)Nc1ccc(Cl)cc1 | – | inactive: -28% [at 46.1 µM] |
| Cc1cc(C)c(OCC(=O)N(Cc2ccco2)Cc2ccco2)c(C)c1 | – | inactive: -12.8% [at 46.1 µM] |
| O=C(CN1c2ccccc2Sc2ccccc21)NNC(=S)Nc1ccc(Cl)cc1Cl | – | inactive: -1.36% |

| SMILES | Potency | activity change, negative = inhibition |
| --- | --- | --- |
| O=c1[nH]cnc2ncc(-c3ccc(O)cc3)nc12 | inconclusive: 35.5 µM [inhibitor, single point] | – |
| Cc1cc2c(C(C)C)c(O)c(O)c(C=O)c2c(O)c1-c1c(C)cc2c(C(C)C)c(O)c(O)c(C=O)c2c1O | active: 18.4 µM and active: 9.96 µM | – |
| Cc1ccc(OCC(=O)N/N=C/c2c[nH]c3ccccc23)c([N+](=O)[O-])c1 | inconclusive: 11.2 µM [inhibitor, partial curve, poor fit] | – |
| CC(C)CNC(=O)c1ccc2c(c1)C(=O)N(C1CCCCC1)C2=O | inconclusive: 1.26 µM [inhibitor, single point] | – |
| COc1ccccc1NS(=O)(=O)c1cc(C(=O)NCC(c2cccs2)N2CCOCC2)ccc1C (configuration not stated) | inconclusive: 22.4 µM [inhibitor, single point] | – |
| Cc1ccc(C(=O)N/C(=C/c2ccc(-c3cccc([N+](=O)[O-])c3)o2)C(=O)NCCCN(C)C)cc1 | inconclusive: 7.08 µM [inhibitor, full curve, poor fit] | – |
| COC(=O)c1cc2c([nH]c3ccccc32)c(C)n1 | – | inactive: 5.63% |
| CCOC(=O)c1c(C)n(C)c2ccc(O)c(CN3CCCCC3)c12 | inconclusive: 5.62 µM [inhibitor, full curve, poor fit] | – |
| Cc1ccccc1N(C(=O)c1snc(C(N)=O)c1N)C(C)C(=O)NC1CCCCC1 (configuration not stated) | inconclusive: 7.08 µM [inhibitor, full curve, poor fit] | – |
| OCCNc1nc(NCc2ccccc2)c2ccccc2n1 | inconclusive: 12.6 µM [inhibitor, single point] | – |
| Cc1nc2cc(C(F)(F)F)ccc2n1C | inconclusive: 15.8 µM [activator, single point] | – |
| CCn1cc(C(=O)N2CCCC(C(=O)c3ccc4ccccc4c3)C2)cn1 (configuration not stated) | inconclusive: 15.8 µM [inhibitor, partial curve, poor fit] | – |
| CCn1ccc(-c2ccccc2)c(C#N)c1=O | inconclusive: 14.1 µM [activator, partial curve, poor fit] | – |
| COC(=O)c1c(N)n(CCCN2CCOCC2)c2nc3ccccc3nc12 | – | inactive: 8.56% |
| Cc1nc(N)sc1N=Nc1ccc(Br)cc1 | inconclusive: 4.11 µM [activator, partial curve, poor fit] | – |
| CCc1ccc(/C=N/NC(=O)c2cc(-c3cccc([N+](=O)[O-])c3)n[nH]2)cc1 | inconclusive: 6.31 µM [inhibitor, full curve] | – |
| Cc1ccccc1-c1noc(-c2ccc(Cl)cc2)n1 | inconclusive: 23.1 µM [activator, partial curve, poor fit] | – |
| COCCCn1c(SCC(=O)OC2CCCCC2)nnc1-c1cccs1 | inconclusive: 0.164 µM [inhibitor, single point] | – |
| CCn1c(=N)c(C(=O)NCc2ccccc2)cc2c(=O)n3cc(C)ccc3nc21 | inconclusive: 0.501 µM [inhibitor, full curve, poor fit] | – |
| CCOc1ccc(NC(=O)CCC(=O)c2ccc(Br)cc2)cc1 | inconclusive: 3.55 µM [inhibitor, single point] | – |
| COc1ccc(OC)c(NC(=O)Cn2cc(C(=O)c3ccccc3F)c3ccccc32)c1 | inconclusive: 2.51 µM [inhibitor, full curve, poor fit] | – |

Record cards, from the list above.
`CCC1Oc2ccc(C)cc2N(CC(=O)N(Cc2cccnc2)Cc2cccc(F)c2)C1=O` (configuration not stated) in the list: Potency: inconclusive: 6.51 µM [inhibitor, full curve, poor fit]
`CCC(C(=O)Nc1ccncc1)c1ccccc1` (configuration not stated) in the list: Potency: inconclusive: 0.112 µM [inhibitor, full curve, poor fit]
`Cc1ccc(Cn2c(=O)c3c(nc4n3CCN4Cc3ccco3)n(C)c2=O)cc1` in the list: Potency: inactive
`Cc1nc2cc(C(F)(F)F)ccc2n1C` in the list: Potency: inconclusive: 15.8 µM [activator, single point]
